Laboratory results: US20030044914A1 (SALK INSTITUTE FOR BIOLOGICAL STUDIES, published 2003)
Results are given in words; binding and its absence hold for the method and conditions named. Some results given as binding are weak or reduced against the parent protein; the word gives no strength.

Assays:
xRXRα (Xenopus laevis) [1] = target: T1, xRXRα (Xenopus laevis) (UniProt P51128); experiment: in vitro DNA-binding (gel shift) with in vitro translated proteins
T1 sequence (looked up): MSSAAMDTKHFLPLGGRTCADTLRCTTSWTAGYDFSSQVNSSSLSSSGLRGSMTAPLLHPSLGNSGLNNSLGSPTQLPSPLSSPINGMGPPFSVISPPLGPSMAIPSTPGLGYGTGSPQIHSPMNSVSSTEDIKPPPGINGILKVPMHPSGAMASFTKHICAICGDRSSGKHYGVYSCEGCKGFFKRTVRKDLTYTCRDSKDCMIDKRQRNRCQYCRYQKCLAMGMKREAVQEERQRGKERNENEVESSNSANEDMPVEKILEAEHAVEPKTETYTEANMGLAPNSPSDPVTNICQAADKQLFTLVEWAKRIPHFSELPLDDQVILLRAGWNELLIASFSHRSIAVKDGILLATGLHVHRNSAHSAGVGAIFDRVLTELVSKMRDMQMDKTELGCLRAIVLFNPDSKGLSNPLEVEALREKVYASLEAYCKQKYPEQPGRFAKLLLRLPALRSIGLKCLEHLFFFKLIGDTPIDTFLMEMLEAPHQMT

xRXRα (Xenopus laevis) [2] = target: T1, xRXRα (Xenopus laevis); experiment: in vitro DNA-binding (gel shift) of in vitro translated XOR-6 and xRXRα on direct repeats DR-1 to DR-5

B1: XOR-6 (Xenopus Orphan Receptor 6) (receptor)
chain: MWKVQETLVLEEEEEEEDASNSCGTGEDEDDGDPKICRACGDRATGYHFNAMTCEGCKGFFRRAVKRNLRLSCPFQNSCVINKSNRRHCQACRLKKCLDIGMRKELIMSDAAVEQRRALIKRKHKLTKLPPTPPGASLTPEQQHFLTQLVGAHTKTFDFNFTFSKNFRPIRRSSDPTQEPQATSSEAFLMLPHISDLVTYMIKGIISFAKMLPYFKSLDIEDQIALLKGSVAEVSVIRFNTVFNSDTNTWECGPFTYDTEDMFLAGFRQLFLEPLVRIHRMMRKLNVQSEEYAMMAALSIFASYRPGVCDWEKIQKLQEHIALTLKDFIDSQRPPSPQNRLLYPKIMECLTELRTVNDIHSKQLLEIWDIQPDATPLMREVFGSPE
notes: Expressed from pCDG-XOR6 (XOR-6 protein coding region) in CV-1 cells; Full-length, about 386 amino acids; also called full-length XOR-6
Question: Which results are given for B1?
Answer: binding (xRXRα (Xenopus laevis) [1]): binds; binding (xRXRα (Xenopus laevis) [2]): binds
